Test results from paper PMC9321382.
Results are given in words; binding and its absence hold for the method and conditions named. Some binding calls cover weakened binding; strength is not graded here.

Chains of the proteins cited; added tags and fusions are not shown.
UniProt Q1D6H4: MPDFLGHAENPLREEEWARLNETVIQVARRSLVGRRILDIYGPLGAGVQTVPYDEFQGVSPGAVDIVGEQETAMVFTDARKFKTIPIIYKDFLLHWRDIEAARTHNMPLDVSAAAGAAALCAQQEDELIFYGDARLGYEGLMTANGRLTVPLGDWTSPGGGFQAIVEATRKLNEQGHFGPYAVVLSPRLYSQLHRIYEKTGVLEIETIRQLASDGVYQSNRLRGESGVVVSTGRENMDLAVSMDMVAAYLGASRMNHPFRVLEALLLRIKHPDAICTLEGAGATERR

Target: Myxococcus xanthus encapsulin shell protein (EncA) (Myxococcus xanthus) (UniProt Q1D6H4)
Test: SEC; co-expressed and co-purified EncAC complex on a Sephacryl S-500 column in 200 mM MOPS buffer, pH 7.0, 200 mM NaCl, native conditions; compared with EncA and EncC alone

- binding: binds
B1: Myxococcus xanthus ferritin-like cargo protein EncC (protein, UniProt Q1D3Y8 1-130)
chain: MPQTNPFHSLVPRKMTDTELARSIRLNIEAELDAINLYAAHIDATDNEDAKAILQHVMDEEREHAALFWELIARLDPEQAAHAKEAVEKYRLITSGASHEAVEAVGKEGAAPSPADVTPEKRLTVGSLRR
